# Data reported in PubChem BioAssay AID1487 (National Center for Advancing Translational Sciences (NCATS), 2009).
# Out of some 200,000 compounds screened, about 25 (0.01%) were called active. The inconclusive results got no clear call from the source; some entries with a clear call stand among them for comparison. The call rests on the fitted dose curve; in most records, active means well fitted inhibition curve with a large enough effect in the signal ratio, with a control signal flat (not every such curve was filed as active); inconclusive means small, poorly fitted or top-dose-only effect, or effect the other way, or a change in a side signal; inactive means flat fitted curve, though single readings scatter; the % refers to the signal ratio. Where the call is inconclusive, the potency comes from a doubtful curve fit.
# Test: qHTS Assay for Modulators of Lamin A Splicing
# Details: HeLa LMNA splicing GFP/RFP minigene ratio, 48 h; ratio change, negative = inhibition: at 46.1 µM (top of the series) unless noted
# In short: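 Read-out is the ratio of GFP to DsRed2 object intensity, acquired by 488 nm laser-scanning cytometry on HeLa lamin A-EGFP minigene reporter cells. Compound incubation 48 hrs at 37 °C in Opti-MEM with 2% FBS; DMSO 0.5% final.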
# On the % scale 0 is the no-effect control and ±100 the full control effect; potency means the concentration at half of the fitted maximal effect.
Compound,"ratio change, negative = inhibition",Potency
COc1ccc(CCN2C(=O)CC(Sc3ncccc3C(=O)O)C2=O)cc1OC (stereo unspecified),inactive: -18.1%,–
O=C(Nc1cccc(-c2cnc3ccccc3n2)c1)c1cccc(NC(=O)c2ccco2)c1,inconclusive: 33.5%,–
Cc1cc(C(=O)CSc2nn3c(=O)c(C(C)(C)C)nnc3s2)c(C)n1-c1ccc(F)cc1,inconclusive: -24%,–
N#Cc1c(SCc2ccc(Cl)cc2)sc(C(=O)c2ccccc2)c1N,inconclusive: -16.6%,–
CC(C)(C)OC(=O)C1C(=O)CC(C)(O)C(C(=O)OC(C)(C)C)C1c1cccnc1 (stereo unspecified),inactive: 0.104%,–
CC(=O)N1CCN(c2ccc(NC(=O)/C=C/c3ccccc3)cc2)CC1,inconclusive: -45.2% [at 46 µM],–
CCC1S/C(=N/C(=O)NC2CCCCC2)NC1=O (stereo unspecified),inactive: 4.37%,–
CC1=C(C(=O)N(C)C)C(c2cccc(Cl)c2)NC(=O)N1 (stereo unspecified),inactive: 4.9%,–
COCCCNC(=O)CSC1=Nc2ccccc2C2=NC(CCC(=O)NCc3ccccc3OC)C(=O)N12 (stereo unspecified),inactive: 13.1% [at 46 µM],–
NNC(=O)c1sccc1OCc1ccc(Cl)cc1Cl,inactive: 3.72% [at 46 µM],–
Nc1ccc(OCc2ccco2)cc1,inconclusive: 2.56% [at 46 µM],–
CC(C)CNC(=S)N1CCN(C(c2ccccc2)c2ccccc2)CC1,–,"inconclusive: 35.5 µM [fluorescent, single point]"
c1ccc(Sc2nc(N3CCCCC3)nc(N3CCCCC3)n2)nc1,inconclusive: -16.4%,–
Cc1cc(C)nc(SCc2cc(=O)c(OC(=O)c3ccc(S(=O)(=O)N4CCCC4)cc3)co2)n1,inconclusive: 6.29%,–
CCS(=O)(=O)N1CCN(c2ncnc3sc(C)c(C)c23)CC1,inconclusive: 32.9% [at 46 µM],–
Cc1ccc(S(=O)(=O)Cn2nnnc2C(CC(C)C)N2CCN(C(=O)c3ccco3)CC2)cc1 (stereo unspecified),inconclusive: 7.53%,–
COc1ccc2c(c1)C(=O)N(c1ccccc1)C(=O)C2,inconclusive: -14.4%,–
O=C(Nc1ccccc1C(F)(F)F)c1cccnc1,inactive: 2.91%,–
CC(=O)N1CCN(c2ccc(NC(=O)c3ccc(Br)o3)cc2Cl)CC1,–,"inconclusive: 10 µM [inhibitor, partial curve, poor fit]"
CCCNC(=S)Nc1ccc(Cl)cc1Cl,–,"inconclusive: 15.8 µM [fluorescent, single point]"
O=C(N/N=C/c1ccc(-c2cccc([N+](=O)[O-])c2)o1)c1ccc([N+](=O)[O-])cc1,inconclusive: -47.8% [at 46 µM],–

Compound,"ratio change, negative = inhibition",Potency
CCCCOc1ccc(C(=O)Nc2nnc3n2CCS3)cc1,inactive: 9.93% [at 46 µM],–
CC(=O)Nc1cccc(Oc2ccc3c(c2)C(=O)N(CCC(=O)O)C3=O)c1,inactive: -4.73%,–
Cc1nc(C)c(-c2csc(Nc3cccc(O)c3)n2)s1,inconclusive: 23.1% [at 46 µM],–
O=c1[nH]c2ccsc2c(=O)n1-c1ccc(F)cc1,inconclusive: 16.6%,–
O=C(c1ccco1)N1CCN(C(=O)C2(S(=O)(=O)c3ccc(Cl)cc3)CC2)CC1,inactive: -6.28%,–
CC1Cc2ccccc2N1C(=S)NC(=O)c1ccco1 (stereo unspecified),inactive: 5.34% [at 46 µM],–
CCc1ccc(NC(=O)Cn2c(SC)nc3ccccc32)cc1,–,"inconclusive: 12.6 µM [falling, single point]"
Cc1c(C(=O)O)[nH]c2c1C(=O)CC(c1ccccc1)C2 (stereo unspecified),inactive: 0.709%,–
Cc1c(/C=N/NC(=O)C(NC(=O)c2ccc3c(c2)OCO3)C(C)C)c2ccccc2n1C (stereo unspecified),–,"inconclusive: 11.2 µM [falling, partial curve]"
CCC(Oc1ccccc1)C(=O)Nc1ccsc1C(=O)OC (stereo unspecified),–,"inconclusive: 11.2 µM [fluorescent, partial curve]"
O=C(NCC(c1ccco1)S(=O)(=O)c1cccs1)c1ccc(F)cc1 (stereo unspecified),inconclusive: 10.4% [at 46 µM],–
COc1ccc(N2CCN(Cc3cc(=O)oc4ccc5ccccc5c34)CC2)cc1,inconclusive: 7.69%,–
Cc1ccc2c(c1)N(CC(=O)N1CCN(c3nc4ccccc4s3)CC1)C(=O)C(C)O2 (stereo unspecified),–,"inconclusive: 35.5 µM [falling, single point]"
c1cncc(CSc2ccc(-c3ccc4c(c3)OCO4)nn2)c1,inconclusive: 23.4% [at 9.22 µM],–
COc1ccccc1CNC(=O)c1ccc(N2CCCC2)c(NC(=O)NCCC(C)C)c1,inconclusive: 35.4% [at 46 µM],–
Cc1ccc(S(=O)(=O)NNC2=NCCCCC2)cc1,inconclusive: 31.6% [at 46 µM],–
O=C(c1cncs1)N1CCCC(CNS(=O)(=O)c2cccs2)C1 (stereo unspecified),inactive: 3.5% [at 46 µM],–
CCOc1ccccc1NC(=O)COC(=O)c1cc(C(=O)OC)cc([N+](=O)[O-])c1,inconclusive: -6.76%,–
CCn1c(=S)[nH]c2c(c1=O)C(C)(C)Cc1ccccc1-2,inconclusive: 31.2% [at 46 µM],–
COc1ccc2c(c1)CC(NC(=O)Nc1c(C)cc(C)cc1C)CO2 (stereo unspecified),inconclusive: -3.9% [at 46 µM],–
